The list shows a part of the results. The calls rarely recur for the same compound in another form.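 Kinases were expressed as nanoluciferase fusions in K562 cells and luminescence was read every 4 h between 2 and 18 h as percent of control, DMSO set to 100% and a positive control to 0%. A time point counts as decreased when the signal drops significantly (2 sigma). The hit call is the authors' own, does not follow from the count of time points alone, and its rule is not shown.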
target: EGFR (UniProt P00533); experiment: kinase-Nluc reporter destabilization hit call (1 = scored as downregulated) (binary); higher = compound decreases kinase abundance; conditions: 10 µM; K562; 2-18 h

kinase-Nluc reporter destabilization hit call, inactive:
C=CC(=O)N1CCC([C@@H]2CCNc3c(C(N)=O)c(-c4ccc(Oc5ccccc5)cc4)nn32)CC1 [Zanubrutinib] 0
CCn1c(=O)c(-c2cc(NC(=O)Nc3ccccc3)c(F)cc2Br)cc2cnc(NC)cc21 [Ripretinib] 0
COc1cc(N2CCN(C)CC2)ccc1Nc1nccc(-c2cn(C)c3cnccc23)n1 0
Fc1ccc(-c2nc(-c3ccc4ccccc4c3F)[nH]c2-c2ccncc2)cc1 0
C=CC(=O)N(C)CCOc1c(N)ncnc1-c1cc(F)cc(NC(=O)c2ccc(C3CC3)cc2F)c1C [Remibrutinib] 0
NCCNc1ncc(C(N)=O)c(Nc2cccc(C(F)(F)F)c2)n1 [Syk Inhibitor II] 0
C[C@@H]1O[C@@H](Oc2c(-c3ccc(O)c(O)c3)oc3cc(O)cc(O)c3c2=O)[C@H](O)[C@H](O)[C@H]1O [Quercitrin] 0
CCCOc1ccc(C=C2SC(=O)NC2=O)cc1 0
Cc1cc2c(F)c(Oc3ncnn4cc(OC[C@@H](C)O)c(C)c34)ccc2[nH]1 [Brivanib] 0
CC(C)[C@@](C)(O)[C@@H]1CN(c2nc(-c3[nH]nc4ncccc34)c(F)cc2Cl)CCN1 0
CCCCCCCCCCCCc1ccc(S(=O)(=O)Nc2nncs2)cc1 0
CC#CC(=O)N1CCC[C@H]1c1nc(-c2ccc(C(=O)Nc3ccccn3)cc2)c2c(N)nccn12 [Acalabrutinib] 0
CC(C)N(CCC(=O)c1ccc2ccccc2c1)Cc1ccccc1 0
C=CC(=O)N1C[C@@H](Nc2ncnc3[nH]ccc23)CC[C@H]1C [(2R,5S)-Ritlecitinib] 0
COc1ccc(-c2cc(C(=O)NN=C(C)c3ccc(OC)c(OC)c3)[nH]n2)cc1 0
Cc1ccc2c(=O)c3cccc(CC(=O)O)c3oc2c1C [Vadimezan] 0
C[C@@H]1CN(C(=O)Nc2ccc(-c3nc(N4CCOCC4)c4cnn(CCCCCCC(=O)NO)c4n3)cc2)CCO1 [HDACs/mTOR Inhibitor 1] 0
C[C@H]1CN(C2COC2)CCN1c1ccc(Nc2cc(-c3ccnc(N4CCn5c(cc6c5CC(C)(C)C6)C4=O)c3CO)cn(C)c2=O)nc1 [Fenebrutinib] 0
Nc1ncccc1-c1nc2ccc(-c3ccccc3)nc2n1-c1ccc(C2(N)CCC2)cc1 [Miransertib] 0
O=c1ncn2nc(Sc3ccc(F)cc3F)ccc2c1-c1c(Cl)cccc1Cl [Neflamapimod] 0
CCCCCC1CC1CC1CC1CCCCCCCC(=O)OC (stereo not drawn) 0
NC1(C(=O)N[C@@H](CCO)c2ccc(Cl)cc2)CCN(c2nc[nH]c3nccc2-3)CC1 [Capivasertib] 0
Cc1ccc(O)cc1Nc1ccnc(Nc2cccc(C(N)=O)c2)n1 [Lck inhibitor 2] 0

6 entries from above, sorted by heavy-atom count, ascending.
kinase-Nluc reporter destabilization hit call, inactive:
CCCCCC1CC1CC1CC1CCCCCCCC(=O)OC (stereo not drawn) 0
NCCNc1ncc(C(N)=O)c(Nc2cccc(C(F)(F)F)c2)n1 [Syk Inhibitor II] 0
Cc1ccc(O)cc1Nc1ccnc(Nc2cccc(C(N)=O)c2)n1 [Lck inhibitor 2] 0
Fc1ccc(-c2nc(-c3ccc4ccccc4c3F)[nH]c2-c2ccncc2)cc1 0
C=CC(=O)N1CCC([C@@H]2CCNc3c(C(N)=O)c(-c4ccc(Oc5ccccc5)cc4)nn32)CC1 [Zanubrutinib] 0
C[C@H]1CN(C2COC2)CCN1c1ccc(Nc2cc(-c3ccnc(N4CCn5c(cc6c5CC(C)(C)C6)C4=O)c3CO)cn(C)c2=O)nc1 [Fenebrutinib] 0

From the supplement of paper PMC12823440, “Inhibitors supercharge kinase turnover through native proteolytic circuits” (Nature, 2025)
